Like-named read-outs stand apart in the source and are kept apart here. Results are given in words; binding and its absence hold for the method and conditions named. In cells and extracts the contact can be indirect. Some results given as binding are weak or reduced against the parent protein; the word gives no strength. Sequences can lack the tags named with a protein.
Columns and labels:
GFP-PXR [1] = biological target: T1, GFP-PXR (UniProt O75469); assay: co-IP
T1 sequence: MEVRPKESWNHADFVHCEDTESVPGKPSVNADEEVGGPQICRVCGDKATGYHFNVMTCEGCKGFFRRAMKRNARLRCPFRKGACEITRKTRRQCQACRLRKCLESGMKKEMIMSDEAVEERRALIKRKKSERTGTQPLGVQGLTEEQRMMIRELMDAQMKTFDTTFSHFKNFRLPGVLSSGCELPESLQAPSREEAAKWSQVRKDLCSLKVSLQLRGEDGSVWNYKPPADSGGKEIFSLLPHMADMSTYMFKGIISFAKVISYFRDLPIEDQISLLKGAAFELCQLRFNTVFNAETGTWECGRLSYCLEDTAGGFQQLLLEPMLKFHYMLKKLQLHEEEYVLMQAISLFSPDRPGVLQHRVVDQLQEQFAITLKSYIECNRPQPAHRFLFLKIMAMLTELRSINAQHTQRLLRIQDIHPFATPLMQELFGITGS

By UniProt entry, the sequences of proteins in these tests, tags left out.
UniProt Q92993: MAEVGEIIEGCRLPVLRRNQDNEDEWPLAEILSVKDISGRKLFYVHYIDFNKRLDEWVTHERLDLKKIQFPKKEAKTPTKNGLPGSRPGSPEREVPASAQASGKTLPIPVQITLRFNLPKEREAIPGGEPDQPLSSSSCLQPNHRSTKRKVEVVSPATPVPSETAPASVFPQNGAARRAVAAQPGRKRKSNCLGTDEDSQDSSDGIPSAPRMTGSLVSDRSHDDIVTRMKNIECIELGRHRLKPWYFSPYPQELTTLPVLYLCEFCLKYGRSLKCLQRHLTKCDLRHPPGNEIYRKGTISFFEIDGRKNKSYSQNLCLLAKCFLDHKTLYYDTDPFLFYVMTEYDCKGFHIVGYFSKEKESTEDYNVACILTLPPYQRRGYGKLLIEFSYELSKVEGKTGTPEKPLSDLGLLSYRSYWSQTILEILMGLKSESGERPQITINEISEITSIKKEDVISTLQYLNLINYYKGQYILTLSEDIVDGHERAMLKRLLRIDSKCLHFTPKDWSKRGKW

GFP-PXR [2] = biological target: T1, GFP-PXR; assay: co-IP; remark: listed apart in the source

| binding (GFP-PXR [1]) | binding (GFP-PXR [2]) | Substance |
| --- | --- | --- |
| binds | binds | RFP-TIP60 (Wild-type) (from UniProt Q92993 1-513) (enzyme) |
| binds |  | pcDNA3.1-TIP60 (Wild-type) (from UniProt Q92993 1-513) (enzyme) |

Reference: publication doi:10.1101/2023.05.06.539700
